In the supplement of paper PMC7024190:
Counter-ions that a name gives are not always drawn. This is one part of the list. Single values are uncertain here, since repeats match poorly.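 A first-round screen of about ten thousand compounds sought those raising reporter output, using human embryonic kidney cells briefly transfected with a plasmid carrying a Renilla luciferase gene driven by the HSV-TK promoter.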

Test system: HEK 293FT
Assay: log relative Renilla luciferase luminescence (reporter expression vs reference, reference not stated) (log (base not stated)); higher = higher recombinant reporter expression
Conditions: 10 µM; time after transfection 48 h

| SMILES | log |
| --- | --- |
| Nc1ncnc2nc(-c3ccc(N4CCOCC4)nc3)cc(-c3cccc(Br)c3)c12 [ABT 702 dihydrochloride] | -0.104 |
| CC[N+](C)(CC)CC(=O)Nc1c(C)cccc1C [N-Methyllidocaine iodide] | -0.0684 |
| CCc1cc(-c2n[nH]c(C)c2-c2ccc3c(c2)OCCO3)c(O)cc1O | 0.0285 |
| OC(c1ccccc1)C1CCN(CCc2ccccc2)CC1 (centres undefined) | -0.085 |
| NS(=O)(=O)Cc1noc2ccccc12 [Zonisamide] | -0.0455 |
| CC(=N)NCCCC[C@H](N)C(=O)O [L-NIL hydrochloride] | 0.03 |
| Fc1ccc([C@@H]2CCNC[C@H]2COc2ccc3c(c2)OCO3)cc1 [Paroxetine maleate] | -0.0358 |
| Clc1cccc2c1CN(C1=NCCN1)C2 | -0.0785 |
| Fc1ccc(C(c2ccc(F)cc2)N2CCN(C/C=C/c3ccccc3)CC2)cc1 [Flunarizine dihydrochloride] | 0.0898 |
| N[C@H](C(=O)O)c1ccc(O)c(C(=O)O)c1 [(S)-3-Carboxy-4-hydroxyphenylglycine] | -0.00867 |
| CCCCCCCC/C=C\CCCCCCCC(=O)N[C@@H](CO)Cc1ccc(O)cc1 | -0.0664 |
| O=C(O)CC/C=C\C[C@H]1CO[C@@H](c2ccccc2Cl)O[C@H]1c1ccccc1O | 0.0438 |
| N=C(N)SCCc1ccc(OCc2ccc([N+](=O)[O-])cc2)cc1 [KB-R7943 mesylate] | -0.0863 |
| NC(=O)CCCCn1ccc(NC(N)=NCC(F)(F)F)n1 | 0.0419 |
| CC(C)N1Cc2cc(S(C)(=O)=O)ccc2N(CCN2CC=C(c3c[nH]c4cc(F)ccc34)CC2)S1(=O)=O | 0.0523 |
| COc1ccc([C@H]2CNC(=O)C2)cc1OC1CCCC1 [(S)-(+)-Rolipram] | -0.0798 |
| Cc1cccc(Nc2cc(Cl)nc(SCC(=O)O)n2)c1C | -0.0109 |
| CCOC(=O)[C@@H](C)Oc1cccc2c(=O)n(CC(=O)Nc3ccc4c(c3)OCCO4)ccc12 | -0.0182 |
| CC(C)(CO)Cc1cc(C(C)(C)C)c(O)c(C(C)(C)C)c1 | -0.0311 |
| c1ccc(-c2[nH]ncc2-c2ccnc3ccccc23)nc1 | -0.0555 |

2 consecutive entries already listed, for reference:

| SMILES | log |
| --- | --- |
| Fc1ccc([C@@H]2CCNC[C@H]2COc2ccc3c(c2)OCO3)cc1 [Paroxetine maleate] | -0.0358 |
| Clc1cccc2c1CN(C1=NCCN1)C2 | -0.0785 |

Later entries.

| SMILES | log |
| --- | --- |
| NC(=O)N1c2ccccc2CC(O)c2ccccc21 (centres undefined) [Licarbazepine] | 0.183 |
| COc1ccc(-c2ccc(=N)n(CCCC(=O)O)n2)cc1 | -0.0824 |
| CCN(CC)c1ccc(/C=N/NC(=O)c2ccc(O)cc2)cc1 | 0.0346 |
| N[C@@H](C(=O)O)c1ccc(C(=O)O)c(C(=O)O)c1 | 0.0219 |
| CCCN(C/C=C/I)C1CCc2cccc(O)c2C1 (centres undefined) [8-Hydroxy-PIPAT oxalate] | -0.0548 |
| O=C(NCCCCCCNC(=O)ON=C1CCCCC1)ON=C1CCCCC1 | 0.0512 |
| O=c1[nH]c2cc(C(F)(F)F)c(N3CCOCC3)cc2n(CP(=O)(O)O)c1=O | -0.158 |
| N#Cc1ccccc1OCC(O)CNCCNC(=O)Nc1ccccc1 (centres undefined) | -0.0369 |
| O=C(NCCO[N+](=O)[O-])c1cccnc1 [Nicorandil] | -0.0452 |
| CC(C)C[C@@H](C(=O)N[C@H](C(=O)OC1CCCC1)c1ccccc1)[C@H](O)C(=O)NO | 0.0127 |
| COC(=O)C1=C(C)NC(C)=C(C(=O)OCCCN2CCC(c3ccccc3)(c3ccccc3)CC2)[C@@H]1c1cccc([N+](=O)[O-])c1 [(R)-(-)-Niguldipine hydrochloride] | 0.0854 |
| CC(C)NCC(O)COc1ccc(CCOCC2CC2)cc1 (centres undefined) [Betaxolol hydrochloride] | -0.0536 |
| CC1=C(/C=C/C(=C/C=C/C(C)=C/C(=O)O)c2ccc(C)cc2)C(C)(C)CCC1 | -0.04 |
| O=C1OC(OC(=O)c2cccnc2Nc2cccc(C(F)(F)F)c2)c2ccccc21 (centres undefined) [Talniflumate] | -0.137 |
| Cn1ccc2cc3c(cc21)CCN3C(=O)Nc1cccnc1 | 0.03 |
| COC1(C2=NCCN2)COc2ccccc2O1 (centres undefined) | -0.0416 |
| Cn1nnc2c(C(N)=O)ncn2c1=O [Temozolomide] | 0.007 |
| COCCCC/C(=N\OCCN)c1ccc(C(F)(F)F)cc1 [Fluvoxamine maleate] | -0.0983 |
| NC(C(=O)O)c1cc(O)cc(O)c1 (racemic) | 0.00213 |
